Data on 19 molecules can be found in the supplement of paper PMC12889115.

Some of the results follow. These are raw signals, not scaled to a control.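 Primary screen: polymyxin B was added at a level permeabilizing Salmonella outer membranes while sparing inner membranes. DMSO wells, both with and without polymyxin B, established maximum growth. Plate-to-plate variation meant each plate was ranked on its own, and the lowest-OD600 compounds were selected as hits.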

The experiment concerns Salmonella enterica serovar Typhimurium SL1344. Nature of the experiment: bacterial growth OD600 after 18 h with compound and polymyxin B; higher = more bacterial growth (less inhibition). The following applies: 50 µM, Mueller-Hinton broth.

With `COC(=O)c1c(S(=O)(=O)NCCc2ccccc2)sc2c1CCN(C(=O)c1ccccc1C)C2`, the “bacterial growth OD600” value (polymyxin B 0.75 µg/mL) is 0.957.
Turning to `CC(Cn1ccc2ccccc21)NC1CCN(c2ccc(C(=O)N(C)C)cc2)CC1` (centres undefined), the “bacterial growth OD600” value (polymyxin B 0.75 µg/mL) amounted to 0.851.
Still for that read-out and setting: next, `CCC(=O)N[C@@H]1c2ccccc2C2(CCN(Cc3ccc(C)s3)CC2)[C@H]1OCCOC`: 0.964; `COc1ccccc1CCNC1CCN(c2ccc(C(=O)NCc3ccc4c(c3)OCO4)cc2)CC1`: 0.922.
Regarding `COc1ccc(CN2CCC(O)(Cc3cc(-c4ccccc4)no3)CC2)c(F)c1`, the “bacterial growth OD600” value (polymyxin B 1 µg/mL) turned out to be 0.84.
On the same count and under the same terms, next, `CC(C)Oc1ccc(CN2CCCC(CO)(Cc3ccccc3)C2)cc1` (centres undefined): 0.897.
`CCOc1cc(CN2CCC(C3(CC)NC(=O)N(CCc4scnc4C)C3=O)CC2)ccc1O` (centres undefined): the “bacterial growth OD600” value (polymyxin B 0.75 µg/mL) was 0.945.
In the case of `COc1ccc(S(=O)(=O)NCC2CCCN(C/C(C)=C/c3ccccc3)C2)cc1` (centres undefined), the “bacterial growth OD600” value (polymyxin B 1 µg/mL) came to 0.875.
Still for that read-out and setting: next, `COc1ccc(C(=O)Nc2ccnn2C2CCN(C(=O)C3CCCC3)CC2)cc1`: 0.816.
Regarding `COc1cccc(-c2ccc(NC(=O)C3CCCN(C(=O)c4ccncc4)C3)cc2)c1` (centres undefined), the “bacterial growth OD600” value (polymyxin B 0.75 µg/mL) was found to be 0.408.
For the molecule `CCN1CCC(Oc2cc(OC)ccc2C(=O)N2CCCC2)CC1`, the “bacterial growth OD600” value (polymyxin B 1 µg/mL) came to 1.
For `Cc1nc(N2CCC(C(=O)N3CCCCC3c3nccn3C)CC2)nc2ccc(C(C)C)cc12` (centres undefined), under “polymyxin B 0.75 µg/mL”, the “bacterial growth OD600” value turned out to be 0.034.
Regarding `Cc1c(CC(=O)NCc2ccccn2)c2c(n1CC1CCCO1)CCCC2=O` (centres undefined), under “polymyxin B 0.75 µg/mL”, the “bacterial growth OD600” value was 0.853.
On to `Cc1cc(C)c(CN2CC[C@@H](N3CCC(O)CC3)[C@H](O)C2)c(-n2cccn2)c1`, for which the “bacterial growth OD600” value (polymyxin B 1 µg/mL) is 0.951.
For `O=C(NCC1(c2ccccc2)CCOCC1)c1cc(COc2ccccc2)[nH]n1`, the “bacterial growth OD600” value (polymyxin B 1 µg/mL) was 0.902.
Regarding `Cc1ncc(CNC2CC(=O)N(CCCc3ccccc3)C2)n1C` (centres undefined), under “polymyxin B 1 µg/mL”, the “bacterial growth OD600” value worked out at 0.991.
As for `Cc1occc1C(=O)N1CCC(Oc2cccc(C(=O)NCc3ccccn3)c2)CC1`, the “bacterial growth OD600” value (polymyxin B 0.75 µg/mL) stood at 0.91.
Consider `c1ccc(NC2CCCN(C3C4CC5CC(C4)CC3C5)C2)cc1` (centres undefined), for which the “bacterial growth OD600” value (polymyxin B 1 µg/mL) amounted to 0.934.
Turning to `COc1cccc(C(=O)C2CCCN(Cc3ccc(C#CC(C)(C)O)s3)C2)c1` (centres undefined), the “bacterial growth OD600” value (polymyxin B 1 µg/mL) worked out at 1.02.
